The nature of the experiment: IkB Signaling. As to conditions: ABC-DLBCL IkBa-CBG/CBR dual luciferase ratio (green luciferase fused to IkBa over red control in OCI-Ly3 lymphoma cells), 4 h. The procedure, abridged: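 Curves were fitted separately to fusion (green), unfused (red) and ratio luminescence, then classed by r2, magnitude and activity. Cells: OCI-Ly3, 4 h compound plus doxycycline at 37C; 10 uM MG-132 defined full response.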
[1] abbreviates: measured here: control luc red channel unless noted.

This is one part of the list. The main result of the screen is listed elsewhere. These columns were measured beside it and carry no call. Compounds called inactive in the main read-out are mostly missing here. Potencies come from curve fits of mixed quality, noted in brackets.

For orientation: AC50 means the concentration giving half of the maximal activity seen.

In the case of `c1ccc2cc(C3=NCCN3)ncc2c1`, the AC50 under setting [1] was 25.1 µM [falling, partial curve].

Consider `O=c1[nH]c(CSc2ncc(-c3ccc(F)cc3)n2Cc2ccco2)nc2ccccc12`, for which, under setting [1], the AC50 is 15.8 µM [falling, partial curve].

As to `Cc1cccc(OCC(=O)N(Cc2ccc(C(C)C)cc2)Cc2ccco2)c1C`, the AC50 under setting [1] was 25.1 µM [falling, single point].

As to `CCN(C(=O)c1nn(-c2ccc(C)cc2)c(=O)c2c1c1ccccc1n2C)c1ccc(F)cc1`, the AC50 under setting [1] is 10 µM [falling, partial curve].

As to `O=C(NCCc1ccccc1)c1ccc(CSc2nc3ccncc3n2Cc2ccccc2F)cc1`, under setting [1], the AC50 was 20 µM [falling, partial curve].

For `Cc1ccc(N2CC(NC(=O)c3ccco3)CC2=O)cc1C` (centres undefined), the AC50 under setting [1] is 6.31 µM [falling, single point].

Regarding `CCOC(=O)c1cnc2c(C)cc(Cl)cc2c1NCCc1ccc(OC)c(OC)c1`, the AC50 under setting [1] is 12.6 µM [falling, partial curve].

`CCOC(=O)c1cc(-c2ccc(F)cc2)n(CCC(=O)NCc2ccccc2OC)c1C`: the AC50 under setting [1] was 39.8 µM [falling, single point].

With `O=C(c1cccc(F)c1)N1CCC(c2c[nH]c3ccccc23)(c2c[nH]c3ccccc23)CC1`, the AC50 under setting [1] is 12.6 µM [falling, partial curve].

`COc1ccc(C(=O)Nc2nnc(S(=O)(=O)N3CCC(C)CC3)s2)cc1OC`: the AC50 under setting [1] was 20 µM [falling, single point].

Take `O=C1CC(c2ccco2)CC2=C1C1c3ccccc3C(=O)N1c1ccccc1N2` (centres undefined): the AC50 under setting [1] is 7.94 µM [falling, full curve, poor fit].

As to `CCOC(=O)C1=C(CN2CCCCC2)NC(=O)NC1c1ccc(C)cc1` (centres undefined), under setting [1], the AC50 was 20 µM [falling, single point].

On to `COc1ccccc1N1CCN(S(=O)(=O)c2ccc3c4c(cccc24)C(=O)N3)CC1`, for which, under setting [1], the AC50 is 31.6 µM [falling, single point].

For the compound `O=C(NCC(c1ccc2c(c1)OCO2)N1CCN(c2ccccc2F)CC1)c1ccccc1F` (centres undefined), the AC50 under setting [1] is 0.0631 µM [falling, full curve, poor fit].

With `CCOC(=O)c1c(C)oc2nc(C)nc(N3CCN(c4cccc(C(F)(F)F)c4)CC3)c12`, under setting [1], the AC50 is 12.6 µM [falling, partial curve].

Consider `COc1ccc(C2CC(=O)N(CC(=O)Nc3ccc(C(C)=O)cc3)c3ccccc3S2)cc1OC` (centres undefined), for which, under setting [1], the AC50 is 12.6 µM [falling, partial curve].

Take `COc1ccc(CCC(=O)NC2CC(=O)N(c3ccccc3)C2)cc1` (centres undefined): under setting [1], the AC50 was 0.0316 µM [rising, full curve, poor fit].

Take `Cc1ccc2[nH]c(CSc3nnc(NC(=O)COc4ccc(F)cc4)s3)cc(=O)c2c1`: the AC50 under setting [1] was 0.501 µM [falling, full curve].

`COCCn1c(CNc2ccc(F)cc2)nnc1SCC(=O)Nc1ccc(OC)cc1OC`: under setting [1], the AC50 is 25.1 µM [falling, single point].

Take `CC(C)(C)OC(=O)NCCCCCc1nnc(SCC(=O)Nc2cccc(Cl)c2)o1`: the AC50 under setting [1] was 12.6 µM [falling, partial curve].

On to `CCOC(=O)C1CCCCN1C(=O)CCc1c(C)nc2ncnn2c1C` (centres undefined), for which, under setting [1], the AC50 is 0.398 µM [falling, full curve].

`COc1cc(Cl)c(C)cc1NC(=O)c1nn(C)c2c1CSc1ccccc1-2`: the AC50 under setting [1] is 25.1 µM [falling, single point].

In the case of `O=C(NCc1nc(-c2ccccc2)no1)c1ccco1`, the AC50 under setting [1] is 3.16 µM [rising, full curve].

In the case of `O=c1c2ccccc2nc(-c2ccccc2)n1CCCn1ccnc1`, the AC50 under setting [1] was 12.6 µM [rising, partial curve].

Turning to `CN(C)c1ccc(NC(=O)CN2CCN(S(=O)(=O)c3cc(Cl)ccc3Cl)CC2)cc1`, the AC50 under setting [1] was 20 µM [falling, partial curve].

Turning to `Cc1cc(=O)n2[nH]c(NC(=O)c3cccc(Cl)c3)nc2n1`, under setting [1], the AC50 was 20 µM [falling, partial curve].

In the case of `CC1=Nc2cc(C(=O)N3CCCCC3)ccc2Sc2ccc(C)cc21`, under setting [1], the AC50 is 31.6 µM [falling, partial curve].

Turning to `Cc1c(C(=O)NCc2ccc(OC(C)C)cc2)sc2ncnc(N(C)C3CCCCC3)c12`, the AC50 under setting [1] is 25.1 µM [falling, partial curve].

Regarding `O=S(=O)(c1ccc(Oc2ccc(Br)cc2)cc1)N1CCOCC1`, under setting [1], the AC50 was 6.31 µM [falling, partial curve].

For the compound `O=C(CSc1nccn1Cc1ccc(Cl)cc1)Nc1ccc2c(c1)OCO2`, the AC50 under setting [1] is 25.1 µM [falling, single point].

For `O=C(Nc1ccc(Cl)c(C(F)(F)F)c1)C(Cc1ccccc1)NS(=O)(=O)c1cccc2nsnc12` (centres undefined), the AC50 under setting [1] was 2.51 µM [falling, full curve].

In the case of `Cc1cc(C)cc(OCCSc2nc(-c3cccs3)nc3cc(=O)[nH]n23)c1`, the concentration at half-maximal activity (AC50) under setting [1] is 31.6 µM [falling, partial curve].

In the case of `CCC(Sc1nc2ncccc2o1)C(=O)Nc1cccc(C)c1` (centres undefined), the AC50 under setting [1] is 3.98 µM [falling, partial curve].

Consider `CCc1ccc(C2c3c(-c4ccccc4)n[nH]c3C(=O)N2c2ccc(C(=O)O)cc2)cc1` (centres undefined), for which the AC50 under setting [1] is 7.94 µM [falling, partial curve].

Turning to `O=C(CN1N=C(c2ccccc2)CCC1=O)NCc1ccc(F)cc1Cl`, the AC50 under setting [1] was 25.1 µM [falling, partial curve].

For `O=S(=O)(NCCc1csc2nc(-c3ccc(Cl)cc3)nn12)c1ccc2c(c1)OCCO2`, under setting [1], the AC50 is 39.8 µM [falling, single point].

Regarding `CC(C)c1ccc(NC(=O)CN2C(=O)COc3ccc(S(=O)(=O)N4CCOCC4)cc32)cc1`, the AC50 under setting [1] was 5.01 µM [rising, full curve].

For `CCSC1=C(C#N)C(c2ccc(Cl)cc2)C2=C(CCCC2=O)N1` (centres undefined), the AC50 under setting [1] is 39.8 µM [falling, single point].

As to `COCCn1c(N)c(C(=O)NCc2cccs2)c2nc3ccccc3nc21`, the AC50 under setting [1] is 10 µM [falling, partial curve].

Turning to `O=C(Nc1cccc(Cl)c1)c1cc(S(=O)(=O)N2CCC3(CC2)OCCO3)ccc1F`, the AC50 under setting [1] is 39.8 µM [falling, single point].

As for `CCN(CCCNC(=O)Cn1ncc2c3ccccc3n(C)c2c1=O)c1cccc(C)c1`, the AC50 under setting [1] was 39.8 µM [falling, single point].

Consider `Cc1ccccc1C(=O)n1nc(-c2cccnc2)nc1NCc1ccc(F)cc1`, for which the AC50 under setting [1] is 20 µM [falling, partial curve].

On to `COc1ccc2cnn(CCOc3ccccc3)c(=O)c2c1OC`, for which the AC50 under setting [1] is 12.6 µM [falling, partial curve].

For the compound `CCOC(=O)c1ccccc1NC(=O)COc1cc(=O)n(CC)c2ccccc12`, under setting [1], the concentration at half-maximal activity (AC50) was 3.16 µM [falling, full curve].

On to `COc1ccc(Cl)cc1NC(=O)c1sc2nc3c(cc2c1N)CN(C)CC3`, for which the AC50 under setting [1] was 25.1 µM [falling, partial curve].

Take `O=C(CCC1N=C2c3ccccc3N=C(SCc3ccc(Cl)cc3)N2C1=O)NC1CCCCC1` (centres undefined): the AC50 under setting [1] was 20 µM [falling, partial curve].

`O=C(COc1ccc2ccccc2c1Br)N1CCN(c2ccccn2)CC1`: the AC50 under setting [1] is 25.1 µM [falling, single point].

On to `Cc1ccc(-n2ncc3c(N4CCCCC4)ncnc32)cc1`, for which, under setting [1], the AC50 is 31.6 µM [falling, partial curve].

In the case of `CC(C)C[C@H]1C(=O)N2CCC[C@@H]2[C@]2(O)O[C@](NC(=O)[C@H]3C=C4c5cccc6[nH]c(Br)c(c56)C[C@H]4N(C)C3)(C(C)C)C(=O)N12`, the concentration at half-maximal activity (AC50) is, setting by setting: (measured here: IkB-luc green channel) 31.6 µM [falling, partial curve, poor fit]; (measured here: control luc red channel) 15.8 µM [falling, partial curve].

As to `O=C(CN1CCN(C2CCCCC2)C(=O)C1=O)Nc1ccc(Cl)cc1`, the AC50 under setting [1] was 12.6 µM [falling, partial curve].

On to `O=C1C=C(NCCc2cc(Br)c(O)c(Br)c2)C(=O)c2ncccc21`, for which the AC50 under setting [1] is 3.16 µM [falling, partial curve].

Regarding `Cc1ccc(C(=O)NC2CC3CCCC(C2)N3C(=O)NC2CCCCC2)cc1` (centres undefined), the AC50 under setting [1] was 31.6 µM [falling, partial curve].

On to `Cc1noc(C)c1CSc1nc2ccccc2c(=O)n1-c1ccc(F)cc1F`, for which the half-maximal activity concentration (AC50) under setting [1] is 39.8 µM [falling, single point].

With `Cc1ccc(C(=O)c2sc(Nc3ccc(F)cc3)nc2N)c(C)c1`, the AC50 under setting [1] was 3.16 µM [falling, full curve].

As for `Cc1cc(C(=O)Nc2nnc(-c3ccccc3)s2)no1`, the AC50 under setting [1] was 0.501 µM [falling, full curve].

Take `COc1ccc(-c2nc(CNC(=O)NC3CCCCC3)c(C)o2)c(OC)c1`: under setting [1], the AC50 is 15.8 µM [falling, partial curve].

As to `CCOC(=O)c1cc2c(=O)n3ccccc3nc2n(Cc2ccco2)c1=NC(=O)c1ccc(F)cc1`, the AC50 under setting [1] was 12.6 µM [falling, partial curve].

In the case of `CCCCCCc1cc2cc(-c3cn4c(n3)sc3cc(OC)ccc34)c(=O)oc2cc1O`, the AC50 under setting [1] was 0.126 µM [falling, full curve].

Consider `O=C(CN1C(=O)COc2ccc(S(=O)(=O)N3CCOCC3)cc21)N1CCN(c2ccc(Cl)cc2)CC1`, for which the AC50 under setting [1] is 39.8 µM [falling, single point].

Take `OC(CNc1nc2ccccc2s1)c1ccccc1` (centres undefined): the AC50 under setting [1] was 7.94 µM [falling, full curve, poor fit].

On to `CCOC(=O)c1cccc(NC(=O)CC2C(=O)N(c3ccc(F)cc3)C(=O)N2Cc2cccc(OC)c2)c1` (centres undefined), for which the AC50 under setting [1] is 12.6 µM [falling, partial curve].

Turning to `CCOC(=O)c1ccc(Nc2nc3ccccc3n3c(C)nnc23)cc1`, under setting [1], the AC50 is 5.01 µM [falling, full curve].

`CC(C)CN(CC(C)C)S(=O)(=O)c1ccc(C(=O)Nc2sc3c(c2C(N)=O)CCN(C(C)C)C3)cc1`: the AC50 under setting [1] is 25.1 µM [falling, partial curve].
